No constants are given. Whether binding was seen depends on the method and setting.
How the values were obtained:
[1] = biological target: CD40 ECD Mutant 4 (amino acid 21-193, E35A/T37A) with mFc-tag (human); assay: ELISA on recombinant CD40 ECD proteins with mFc tag (Example 16); antibody concentration not given
[2] = biological target: CD40 ECD Mutant 3 (amino acid 21-193, F34A/T35A) with mFc-tag (human); assay: as above
[3] = biological target: CD40 ECD Mutant 2 (amino acid 21-193, T32A/E33A) with mFc-tag (human); assay: as above
[4] = biological target: CD40 ECD Mutant 4 (amino acid 21-193, E35A/T37A) with mFc-tag (human); assay: ELISA, recombinant CD40 ECD-mFc
[5] = biological target: CD40 ECD Mutant 3 (amino acid 21-193, F34A/T35A) with mFc-tag (human); assay: ELISA, recombinant CD40 ECD-mFc
[6] = biological target: CD40 ECD Mutant 2 (amino acid 21-193, T32A/E33A) with mFc-tag (human); assay: ELISA, recombinant CD40 ECD-mFc

Measured: binding

B1: chimeric 13A2 antibody (antibody, human IgG2, kappa, V domains shown)
VH: EVKLEQSGPGLVKPSQSLSLTCSVTGYSITTNYYWNWIRQFPGNKLEWMGYINYDGSNNYNPSLKNRISITRDTSKNQFFLKLNSVTTEDTATYYCARLDYWGQGTSVTVSS
VL: DIVMTQSPLSLPVSLGDQASISCRSSQSLENSNGNTFLNWFLQKPGQSPQLLIYKVSNRFSGVLDRFSGTGSGTDFTLTISRVEAEDLGVYFCLQVTHVPFTFGSGTKLEIKR
no binding: [1] | [2] | [3] | [4] | [5] | [6]

B2: 13A2-VH3VL2 (antibody, human IgG2, kappa, V domains shown)
VH: QVQLQESGPGLVKPSDTLSLTCAVSGYSITTNYYWNWIRQPPGNKLEWMGYINYDGSNNYNPSLKNRITISVDTSKNQFSLKLSSVTAVDTAVYYCARLDYWGQGTLVTVSS
VL: DVVLTQSPLSLPVTLGQPASISCRSSQSLENSNGNTFLNWFQQRPGQSPRLLIYKVSNRFSGVPDRFSGSGSGTDFTLKISRVEAEDVGVYYCLQVTHVPFTFGQGTKLEIKR
no binding: [1] | [2] | [3]

B3: 13A2-VH3VL3 (antibody, human IgG2, kappa, V domains shown)
VH: QVQLQESGPGLVKPSDTLSLTCAVSGYSITTNYYWNWIRQPPGNKLEWMGYINYDGSNNYNPSLKNRITISVDTSKNQFSLKLSSVTAVDTAVYYCARLDYWGQGTLVTVSS
VL: DVVLTQSPLSLPVTLGQPASISCRSSQSLENSNGNTFLNWFQQRPGQSPRLLIYKVSNRFSGVPDRFSGSGSGTDFTLKISRVEAEDVGVYFCLQVTHVPFTFGSGTKLEIKR
no binding: [1] | [2] | [3]
